Reference: patent US20160376339A1 (CURACLE, published 2016)
These are yes or no findings as the source states them, for the method shown. Binding seen in cells or lysates may run through a third protein. Some results given as binding are weak or reduced against the parent protein; the word gives no strength. For some of these results: Where a sequence is shown, tags or fusion partners need not be part of it.

Key:
[1] = target: T1, 3-phosphoinositide-dependent kinase 1 (PDK1), endogenous in HUVECs (human) (UniProt O15530); experiment: co-immunoprecipitation from VEGF-treated HUVECs (IP anti-AMIGO2, blot endogenous PDK1)
T1 sequence (looked up): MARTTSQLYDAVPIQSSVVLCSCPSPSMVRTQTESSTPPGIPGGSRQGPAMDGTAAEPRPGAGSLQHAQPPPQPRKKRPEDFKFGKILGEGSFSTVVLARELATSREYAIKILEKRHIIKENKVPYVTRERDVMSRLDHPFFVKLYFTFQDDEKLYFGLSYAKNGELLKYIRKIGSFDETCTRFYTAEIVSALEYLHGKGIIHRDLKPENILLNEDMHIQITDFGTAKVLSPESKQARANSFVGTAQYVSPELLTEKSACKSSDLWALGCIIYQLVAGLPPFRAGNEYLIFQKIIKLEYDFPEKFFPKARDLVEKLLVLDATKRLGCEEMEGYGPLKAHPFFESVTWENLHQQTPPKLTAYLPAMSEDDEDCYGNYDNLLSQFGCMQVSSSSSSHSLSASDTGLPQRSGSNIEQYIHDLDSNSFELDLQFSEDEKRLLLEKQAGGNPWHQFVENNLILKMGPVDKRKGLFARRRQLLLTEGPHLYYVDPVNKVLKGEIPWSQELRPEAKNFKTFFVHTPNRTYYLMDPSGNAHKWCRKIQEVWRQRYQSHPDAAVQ

[2] = target: T1, 3-phosphoinositide-dependent kinase 1 (PDK1), endogenous in HUVECs (human); experiment: co-immunoprecipitation from HUVECs (IP anti-AMIGO2, blot anti-PDK1)
[3] = target: T1, 3-phosphoinositide-dependent kinase 1 (PDK1), endogenous in HUVECs (human); experiment: co-immunoprecipitation of endogenous proteins from HUVECs (IP anti-AMIGO2, blot anti-PDK1)
Flag-PDK1 [4] = target: T2, Flag-PDK1 (UniProt O15530 1-556, limits assumed); experiment: co-immunoprecipitation (IP Flag, blot anti-GFP)
T2 construct: Expressed in HEK293T cells for co-immunoprecipitation; not shown: Flag tag
T2 sequence (looked up): T1 sequence (looked up)

Flag-PDK1 [5] = target: T2, Flag-PDK1; experiment: co-immunoprecipitation of GFP-tagged AMIGO2 constructs with Flag-PDK1
Flag-PDK1 [6] = target: T2, Flag-PDK1; experiment: co-immunoprecipitation of GFP-tagged CD with Flag-PDK1
Flag-PDK1 [7] = target: T2, Flag-PDK1; experiment: co-immunoprecipitation of GFP-tagged truncated AMIGO2 with Flag-PDK1

B1: adhesion molecule with Ig-like domain 2 (AMIGO2), endogenous in HUVECs (receptor)
chain: VCPTACICATDIVSCTNKNLSKVPGNLFRLIKRLDLSYNRIGLLDSEWIPVSFAKLNTLILRHNNITSISTGSFSTTPNLKCLDLSSNKLKTVKNAVFQELKVLEVLLLYNNHISYLDPSAFGGLSQLQKLYLSGNFLTQFPMDLYVGRFKLAELMFLDVSYNRIPSMPMHHINLVPGKQLRGIYLHGNPFVCDCSLYSLLVFWYRRHFSSVMDFKNDYTCRLWSDSRHSRQVLLLQDSFMNCSDSIINGSFRALGFIHEAQVGERLMVHCDSKTGNANTDFIWVGPDNRLLEPDKEMENFYVFHNGSLVIESPRFEDAGVYSCIAMNKQRLLNETVDVTINVSNFTVSRSHAHEAFNTAFTTLAACVASIVLVLLYLYLTPCPCKCKTKRQKNMLHQSNAHSSILSPGPASDASADERKAGAGKRVVFLEPLKDTAAGQNGKVRLFPSEAVIAEGILKSTRGKSDSDSVNSVFSDTPFVAST
[1]
  binding: binds
[2]
  binding: binds
[3]
  binding: binds

B2: GFP-AMIGO2 (EGFP-tagged full-length human AMIGO2) (receptor, not shown: large carriers)
chain: B1 chain
Flag-PDK1 [4]
  binding: binds

B3: AMIGO2^CD (GFP-tagged cytosolic domain of AMIGO2, 420-522aa) (protein, not shown: large carriers)
chain: TPCPCKCKTKRQKNMLHQSNAHSSILSPGPASDASADERKAGAGKRVVFLEPLKDTAAGQNGKVRLFPSEAVIAEGILKSTRGKSDSDSVNSVFSDTPFVAST
Flag-PDK1 [5]
  binding: binds
Flag-PDK1 [6]
  binding: binds

B4: AMIGO2^491aa (GFP-tagged AMIGO2 truncated after residue 491) (receptor, not shown: large carriers)
chain: VCPTACICATDIVSCTNKNLSKVPGNLFRLIKRLDLSYNRIGLLDSEWIPVSFAKLNTLILRHNNITSISTGSFSTTPNLKCLDLSSNKLKTVKNAVFQELKVLEVLLLYNNHISYLDPSAFGGLSQLQKLYLSGNFLTQFPMDLYVGRFKLAELMFLDVSYNRIPSMPMHHINLVPGKQLRGIYLHGNPFVCDCSLYSLLVFWYRRHFSSVMDFKNDYTCRLWSDSRHSRQVLLLQDSFMNCSDSIINGSFRALGFIHEAQVGERLMVHCDSKTGNANTDFIWVGPDNRLLEPDKEMENFYVFHNGSLVIESPRFEDAGVYSCIAMNKQRLLNETVDVTINVSNFTVSRSHAHEAFNTAFTTLAACVASIVLVLLYLYLTPCPCKCKTKRQKNMLHQSNAHSSILSPGPASDASADERKAGAGKRVVFLEPLKDTAAGQNGKVRLFPSEAV
Flag-PDK1 [7]
  binding: binds
